Structures can show the parent of a compound that is named as a salt. At least one structure is not confirmed: it was looked up by name or label, or the drawing left a doubt.
Test system: Bone-marrow derived dendritic cells (BMDC)
Experiment: Co-stimulatory marker and MHC surface expression by FACS in BMDC stimulated with LPS and OVA257-264 peptide
Assay type: cell-based, C57BL/6 mice
Settings: pre-treated 1 hour, then LPS 100 ng/ml + OVA257-264 peptide 10 μM for 24 hours; live CD11c+ population
Procedure: Cells were analysed for expression of co-stimulatory markers and MHC complexes at the cell surface by FACS, gated on the live CD11c+ population. Panel A) Median fluorescence intensity ([…]) of CD40, CD80 and CD86 expression. Panel B) Overall expression of MHC-II, given by the expression of I-Ab. Panel C) Relative surface expression of MHC-I (H2-Kb): OVA257-264 peptide complexes over the total surface expression of H2-Kb. Panel D) Quantification of cytokine secretion by ELISA. Data is expressed as the mean+/−standard error of the mean (SEM). Statistical significance was determined by a student's t-test with *p≤0.05.
LPS (100 ng/ml) was used in this instance as a model Toll-like Receptor ligand for a pathogen and a surrogate for the licensed TLR-specific adjuvant-MPLA.

Cc1[nH]ccc2c1[nH]c1cc(=O)ccc12 [ACB1804s, harmol HCl]
expression of CD80/CD86 co-stimulatory markers: increased
overall expression of surface MHC-II (I-Ab): increased
